Laboratory results taken from patent publication US7772251B2, “N-sulphonylated amino acid derivatives, method for the production and use thereof” (The Medicines Company (Leipzig) GmbH, priority 2003, dated 2010).
For at least one compound, name, drawing or mass did not settle the structure.

Tests used:
[1] = test system: matriptase-expressing colon carcinoma cell line DLD-1; experiment: Inhibition of invasive growth (Matrigel invasion assay); assay type: cell-based; conditions: proHGF-stimulated; inhibitor 30 μM; 48 hours; FIG. 1
Source text: A common test system for invasive growth at the cellular level is the Matrigel invasion assay. This entails cells being applied to an artificial extracellular matrix and investigation of how many cells migrate through the latter within a defined period.
It is shown here by way of example for the matriptase inhibitors 37 and 54 that invasive growth is influenced and the migration of matriptase-expressing colon carcinoma cell line DLD-1 through Matrigel is inhibited:
The wells of a ‘Transwell’ plate were each coated with 10 μg of Matrigel and 160 000 DLD-1 cells (Dexter et al, Cancer Research 39: 1020-1025 (1979)) in 100 μl of medium (RPMI 1640, with 2% Ultroser HY serum substituted) were applied to each, invasive growth was stimulated by adding ProHGF in 400 μl of medium with and without inhibitor (30 μM). After incubation at 37° C. and 5% CO2 for 48 hours, the cells which had migrated through the matrix were fixed, stained and photographed at 100× magnification.

[2] = test system: matriptase-expressing prostate carcinoma cells (PC-3); experiment: Inhibition of proHGF-induced cell scattering (scatter assay); assay type: cell-based; conditions: proHGF-stimulated; inhibitor 3 μM; 6 days; FIG. 2
Source text: Because of its ability to induce the detachment of cells from an isolated assemblage and the dissemination of the cells, HGF is also referred to as scatter factor. This function can be detected at the cellular level with the aid of the so-called scatter assay. This entails the cells being seeded and their dissemination stimulated by the addition of HGF being recorded after a defined time. […] It is shown below by way of example for the matriptase inhibitors 37 and 54 that activation of proHGF by cellular matriptase is prevented and the scattering of proHGF-stimulated cells is reduced.
For this purpose, 500 matriptase-expressing prostate carcinoma cells (PC-3) were seeded in each well of a 96-well plate and incubated (37° C., 5% CO2) in 100 μl of medium without fetal calf serum (Nut Mix. F-12, 2% Ultroser HY) overnight, and then the scattering was stimulated by adding proHGF with and without matriptase inhibitors (3 μM). After 6 days, the cells were fixed and stained, and representative sections were photographed at 100× magnification.

N=C(N)c1cccc(CC(NS(=O)(=O)c2ccc(C3CCCCC3)cc2)C(=O)N2CCC(C(=O)N3CCN(C(=N)N)CC3)CC2)c1 (centres unmarked) [Compound 54]
inhibition of migration/invasion of DLD-1 cells through Matrigel [1]: inhibited | inhibition of proHGF-induced scattering of PC-3 cells [2]: inhibit the proHGF-induced scattering of PC-3 cells
